Measured values: publication PMC8983672
No constants are given. Whether binding was seen depends on the method and setting. In cells and extracts the contact can be indirect. A yes stands for co-enrichment or nearness to the bait. Other partners may have been found.

Sequences of proteins named here, by UniProt entry; tags and fusion partners are left off.
UniProt P47936: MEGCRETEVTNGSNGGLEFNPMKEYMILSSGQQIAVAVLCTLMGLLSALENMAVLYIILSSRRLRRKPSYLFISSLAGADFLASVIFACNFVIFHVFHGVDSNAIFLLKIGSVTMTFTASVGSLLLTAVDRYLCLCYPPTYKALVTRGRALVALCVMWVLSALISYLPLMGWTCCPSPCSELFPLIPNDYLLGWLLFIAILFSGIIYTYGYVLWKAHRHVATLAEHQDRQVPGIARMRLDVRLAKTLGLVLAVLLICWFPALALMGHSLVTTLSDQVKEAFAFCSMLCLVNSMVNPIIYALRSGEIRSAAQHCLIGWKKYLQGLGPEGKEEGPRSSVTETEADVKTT
UniProt P52332: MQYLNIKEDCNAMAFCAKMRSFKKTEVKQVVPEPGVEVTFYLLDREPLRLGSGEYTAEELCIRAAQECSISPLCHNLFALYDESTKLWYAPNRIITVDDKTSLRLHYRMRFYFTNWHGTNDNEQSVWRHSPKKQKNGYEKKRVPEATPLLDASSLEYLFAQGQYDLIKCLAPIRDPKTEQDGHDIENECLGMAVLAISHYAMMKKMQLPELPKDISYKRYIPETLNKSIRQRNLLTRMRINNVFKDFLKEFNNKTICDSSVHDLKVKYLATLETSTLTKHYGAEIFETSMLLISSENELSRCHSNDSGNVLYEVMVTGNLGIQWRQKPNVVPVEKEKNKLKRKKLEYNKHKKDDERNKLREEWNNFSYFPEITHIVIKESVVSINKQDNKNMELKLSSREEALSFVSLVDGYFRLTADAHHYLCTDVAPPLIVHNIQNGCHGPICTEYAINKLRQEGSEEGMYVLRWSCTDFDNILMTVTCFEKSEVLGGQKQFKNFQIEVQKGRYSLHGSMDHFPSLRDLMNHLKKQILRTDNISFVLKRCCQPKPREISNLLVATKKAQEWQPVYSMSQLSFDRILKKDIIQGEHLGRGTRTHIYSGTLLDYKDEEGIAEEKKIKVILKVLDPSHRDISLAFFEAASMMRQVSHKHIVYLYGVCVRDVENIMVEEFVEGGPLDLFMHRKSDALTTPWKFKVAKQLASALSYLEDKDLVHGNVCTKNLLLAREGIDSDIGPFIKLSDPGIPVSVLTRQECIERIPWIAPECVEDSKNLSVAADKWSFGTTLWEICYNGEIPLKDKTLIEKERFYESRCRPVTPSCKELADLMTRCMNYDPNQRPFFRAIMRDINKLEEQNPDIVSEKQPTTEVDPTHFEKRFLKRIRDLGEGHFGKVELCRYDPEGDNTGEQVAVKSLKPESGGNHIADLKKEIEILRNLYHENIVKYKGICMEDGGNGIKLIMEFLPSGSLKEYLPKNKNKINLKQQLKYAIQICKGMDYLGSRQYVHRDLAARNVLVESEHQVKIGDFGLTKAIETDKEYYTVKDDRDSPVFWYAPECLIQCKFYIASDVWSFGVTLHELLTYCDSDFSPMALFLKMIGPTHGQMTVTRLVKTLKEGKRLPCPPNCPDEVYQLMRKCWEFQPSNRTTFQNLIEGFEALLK

Biological target: FLAG-tagged CNR2 (cannabinoid receptor 2) from Cnr2-2×Flag-IRES-Egfp^flox/flox knock-in mice (mouse) (UniProt P47936)
Assay: affinity purification with mass spectrometry; lysate of sorted CD8+GFP+ T cells of Cnr2-2×Flag knock-in mice; anti-FLAG M2 affinity gel against mouse IgG beads, overnight at 4 °C; silver-stained bands found only in the FLAG group cut out, LC-MS/MS

binding: binds
Substance: JAK1 (from UniProt P52332 1-1153) (enzyme)
